Assay results reported in the supplement of paper PMC4604168 (melanoma cell lines).
This is one part of the list. Repeats are few or missing, and single values can be far off.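 The apoptosis fraction was the count of cleaved-PARP antibody-stained nuclei relative to all DNA-stained nuclei, imaged in 1,536-well plates. Screening doses were set so most cells survived, and baseline and induced cleaved-PARP levels vary greatly across cell lines.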

System: RPMI7951
Assay: cleaved PARP positive nuclei fraction relative to DMSO control; melanoma cells; higher = more apoptosis
Details: library dose: low library concentration; 72 h

| Compound | cleaved PARP positive nuclei fraction [%] |
| --- | --- |
| O=C(CCCCCCC(=O)Nc1ccccc1)NO [vorinostat] + COc1ccc2c(c1)CCC1C2CCC2(C)C(NCCCCCCN3C(=O)C=CC3=O)CCC12 [U73122] (first compound 0.08 µM, partner dose 0.4 µM) | 106 |
| Cn1nnc2c(C(N)=O)ncn2c1=O [temozolomide] + COc1ccc(COc2ccc(Cc3cnc(N)nc3N)cc2OC)cc1 [GW2580] (first compound 2 µM, partner dose 1 µM) | 162 |
| OCCn1cc(-c2cnc3nnn(Cc4ccc5ncccc5c4)c3n2)cn1 + COc1ccc(-c2ccc3c(N4CCOCC4)nc(N4C[C@@H](C)O[C@@H](C)C4)nc3n2)cc1CO [KU0063794] (first compound 1 µM, partner dose 0.02 µM) | 37.6 |
| Cc1ccc(NC(=O)c2cccc(N(C)C)c2)cc1NC(=O)c1ccc(O)cc1 + Cn1cc(/C=C2\C(=O)Nc3cccnc32)c2ccccc21 [GW441756] (first compound 2 µM, partner dose 0.4 µM) | 48.5 |
| Cc1ccc(NC(=O)c2cccc(N(C)C)c2)cc1NC(=O)c1ccc(O)cc1 + CCCCCCCCCCCC1=C(O)C(=O)C=C(O)C1=O [Embelin] (first compound 2 µM, partner dose 1.2 µM) | 88.3 |
| Cn1cncc1[C@@](N)(c1ccc(Cl)cc1)c1ccc2c(c1)c(-c1cccc(Cl)c1)cc(=O)n2C [tipifarnib] + Cc1cc([N+](=O)[O-])ccc1NS(=O)(=O)c1cc(Cl)ccc1Cl [FH535] (first compound 0.01 µM, partner dose 1 µM) | 153 |
